PubChem BioAssay AID1259308 – NCATS – 2017
Aim: 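Candidate targets for better recombinant protein yield in mammalian cells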 (primary screen). Cell system: human HEK293 embryonic kidney cells stably expressing firefly luciferase (HEK-CMV-Luc2-Hygro). Reagent: single siRNA against human genes, 0.8 pmol siRNA per well. Duration: 72 h. Detection: 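Reporter luminescence and viable-cell signal on separate replicate plates, given as percent of non-targeting control and median/MAD z-scores, plus per-cell luciferase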. Direction: total luciferase, z-score: higher = more reporter protein produced. Hit rule: 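Active when the median/MAD z-score for overall luciferase is greater than 3; a gene was taken forward for validation with new siRNAs if at least two of its three siRNAs passed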. Meaning of the calls: active = raised luciferase; inactive = no rise.
The deposit covers about 59,000 reagents; shown is an unselected part. Of all reagents, about 1,510 (2.6%) were called active. 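Calls use total luciferase alone and ignore viability, so some active siRNAs may act by altering cell number.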 The numbers tell different reagents against one gene apart. Not all columns of the deposit are shown.

Gene | reagent | total luciferase, z-score | Call
LAMA4 | 1 | 0.254 | inactive
LAMA4 | 2 | -0.705 | inactive
LAMA4 | 3 | 0.455 | inactive
EFCAB11 | 1 | -1.92 | inactive
EFCAB11 | 2 | -0.253 | inactive
EFCAB11 | 3 | -0.39 | inactive
GABPA | 1 | -0.685 | inactive
GABPA | 2 | -0.522 | inactive
GABPA | 3 | 0.924 | inactive
PRSS53 | 1 | -0.763 | inactive
PRSS53 | 2 | 0.0873 | inactive
PRSS53 | 3 | 3.6 | active
RANBP2 | 1 | 2.04 | inactive
RANBP2 | 2 | -0.321 | inactive
RANBP2 | 3 | 0.497 | inactive
ARMC3 | 1 | -0.49 | inactive
ARMC3 | 2 | -0.606 | inactive
ARMC3 | 3 | -0.562 | inactive
POC5 | 1 | 1.96 | inactive
POC5 | 2 | -1.21 | inactive
POC5 | 3 | 0.29 | inactive
UTP18 | 1 | -0.392 | inactive
UTP18 | 2 | -1.48 | inactive
UTP18 | 3 | -1.01 | inactive
INTS10 | 1 | 0.927 | inactive
INTS10 | 2 | 0.756 | inactive
INTS10 | 3 | 0.641 | inactive
ASPHD1 | 1 | 1.97 | inactive
ASPHD1 | 2 | -1.44 | inactive
ASPHD1 | 3 | 0.788 | inactive
TRPC5 | 1 | -0.267 | inactive
TRPC5 | 2 | -1.79 | inactive
TRPC5 | 3 | 2.08 | inactive

Continued (7 carried over from the part before).
Gene | reagent | total luciferase, z-score | Call
INTS10 | 3 | 0.641 | inactive
ASPHD1 | 1 | 1.97 | inactive
ASPHD1 | 2 | -1.44 | inactive
ASPHD1 | 3 | 0.788 | inactive
TRPC5 | 1 | -0.267 | inactive
TRPC5 | 2 | -1.79 | inactive
TRPC5 | 3 | 2.08 | inactive
HOXD3 | 1 | 0.0486 | inactive
HOXD3 | 2 | -1.04 | inactive
HOXD3 | 3 | 1.79 | inactive
MEGF11 | 1 | 1.17 | inactive
MEGF11 | 2 | 2.37 | inactive
MEGF11 | 3 | 2.72 | inactive
RIPK2 | 1 | -1.43 | inactive
RIPK2 | 2 | -0.0544 | inactive
RIPK2 | 3 | -0.441 | inactive
HRG | 1 | 1.28 | inactive
HRG | 2 | -0.156 | inactive
HRG | 3 | 0.462 | inactive
SHCBP1 | 1 | 0.678 | inactive
SHCBP1 | 2 | -0.137 | inactive
SHCBP1 | 3 | -1.39 | inactive
SPINK4 | 1 | -0.147 | inactive
SPINK4 | 2 | -0.177 | inactive
SPINK4 | 3 | -0.0681 | inactive
C2orf80 | 1 | -2.62 | inactive
C2orf80 | 2 | -1.21 | inactive
C2orf80 | 3 | -0.389 | inactive
TNFAIP1 | 1 | -0.885 | inactive
TNFAIP1 | 2 | 1.28 | inactive
TNFAIP1 | 3 | -1.72 | inactive
